Experimental data: PMC10778422, “PI3Kδ Inhibition Potentiates Glucocorticoids in B-lymphoblastic Leukemia by Decreasing Receptor Phosphorylation and Enhancing Gene Regulation”

How the values were obtained:
[1] = target: T1, GR-AF1-DBD-1P (S226P) (Homo sapiens) (UniProt P04150); experiment: EMSA; conditions: phosphorylated 1P (pS226), p < 0.0001, Kd plotted in figure only, 5 mM Mg2+; EMSA: 20 mM Tris-HCl pH 8.0, 150 mM KCl, 10% glycerol, 5 mM MgCl2, 1 mM DTT, 1 mM EDTA, 200 ng/uL BSA, 40 ng/uL salmon sperm DNA; dsDNA diluted to 10 nM in this buffer; recombinant protein; residues 27-506; label: Cy5; scale: fold inhibition of affinity vs unmodified and 6P
T1 sequence (looked up): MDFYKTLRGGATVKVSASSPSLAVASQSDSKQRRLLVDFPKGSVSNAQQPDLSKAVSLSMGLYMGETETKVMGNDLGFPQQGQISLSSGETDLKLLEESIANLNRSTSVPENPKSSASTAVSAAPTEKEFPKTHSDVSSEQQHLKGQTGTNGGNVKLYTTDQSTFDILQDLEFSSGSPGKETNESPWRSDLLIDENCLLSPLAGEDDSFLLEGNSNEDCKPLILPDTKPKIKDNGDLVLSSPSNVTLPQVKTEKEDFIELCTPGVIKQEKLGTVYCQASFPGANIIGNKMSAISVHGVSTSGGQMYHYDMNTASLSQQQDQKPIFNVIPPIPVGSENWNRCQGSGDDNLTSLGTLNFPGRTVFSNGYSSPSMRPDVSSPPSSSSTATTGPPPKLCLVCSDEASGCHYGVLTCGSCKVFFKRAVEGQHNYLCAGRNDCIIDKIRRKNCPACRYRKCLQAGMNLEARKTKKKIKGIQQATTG

[2] = target: T2, GR-AF1-DBD-6P (Homo sapiens) (UniProt P04150); experiment: EMSA; conditions: phosphorylated 6P, p = 0.0036, Kd plotted in figure only, 5 mM Mg2+; EMSA: 20 mM Tris-HCl pH 8.0, 150 mM KCl, 10% glycerol, 5 mM MgCl2, 1 mM DTT, 1 mM EDTA, 200 ng/uL BSA, 40 ng/uL salmon sperm DNA; dsDNA diluted to 10 nM in this buffer; recombinant protein; residues 27-506; label: Cy5
T2 sequence (looked up): T1 sequence (looked up)

Work on “GTACGGAACATCGTGTACTGTAC (double strand) [consensus GR site]” yielded a binding signal [1] of 3 and a binding signal (% inhibition of affinity vs unmodified) [2] of 50.

For at least one entry, the source does not settle the construct or the ends of the probe. Whether high values mean tight binding is not given here for every scale. Protein sequences can lack the tags named with them.
